In the test the target is signal transducer and transcription activator 1 (STAT1) (human (endogenous in HT29 and SW480)) (UniProt P42224). The test is described as follows: co-IP; lysates of HT29 and SW480 cells treated with 10 ng/mL IFN-γ (or PBS) for 24 hours, in one panel after SCR or GBP2 siRNA for 36 hours; immunoprecipitation with anti-STAT1 antibody, western blot.

Amino acid sequences for entries named in this document (tags omitted).
UniProt P42224: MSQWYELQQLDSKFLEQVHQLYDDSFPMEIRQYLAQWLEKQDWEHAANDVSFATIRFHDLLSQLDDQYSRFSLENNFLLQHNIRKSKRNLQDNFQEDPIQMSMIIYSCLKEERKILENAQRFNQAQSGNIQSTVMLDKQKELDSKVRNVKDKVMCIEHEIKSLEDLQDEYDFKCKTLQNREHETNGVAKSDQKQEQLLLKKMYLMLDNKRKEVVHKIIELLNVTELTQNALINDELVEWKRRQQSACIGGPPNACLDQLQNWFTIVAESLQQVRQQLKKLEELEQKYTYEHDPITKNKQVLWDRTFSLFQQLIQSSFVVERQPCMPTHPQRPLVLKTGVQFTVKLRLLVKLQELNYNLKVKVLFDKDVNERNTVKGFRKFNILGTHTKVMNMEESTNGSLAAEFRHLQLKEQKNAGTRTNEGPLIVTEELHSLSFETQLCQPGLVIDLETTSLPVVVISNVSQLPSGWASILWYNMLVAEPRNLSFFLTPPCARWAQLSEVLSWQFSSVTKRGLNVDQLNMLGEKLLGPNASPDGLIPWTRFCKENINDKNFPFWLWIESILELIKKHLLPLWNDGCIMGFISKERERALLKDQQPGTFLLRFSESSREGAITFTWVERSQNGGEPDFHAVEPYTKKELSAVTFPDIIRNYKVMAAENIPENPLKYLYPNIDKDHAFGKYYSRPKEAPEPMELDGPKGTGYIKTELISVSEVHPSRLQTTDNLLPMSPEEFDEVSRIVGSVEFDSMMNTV
UniProt P29350: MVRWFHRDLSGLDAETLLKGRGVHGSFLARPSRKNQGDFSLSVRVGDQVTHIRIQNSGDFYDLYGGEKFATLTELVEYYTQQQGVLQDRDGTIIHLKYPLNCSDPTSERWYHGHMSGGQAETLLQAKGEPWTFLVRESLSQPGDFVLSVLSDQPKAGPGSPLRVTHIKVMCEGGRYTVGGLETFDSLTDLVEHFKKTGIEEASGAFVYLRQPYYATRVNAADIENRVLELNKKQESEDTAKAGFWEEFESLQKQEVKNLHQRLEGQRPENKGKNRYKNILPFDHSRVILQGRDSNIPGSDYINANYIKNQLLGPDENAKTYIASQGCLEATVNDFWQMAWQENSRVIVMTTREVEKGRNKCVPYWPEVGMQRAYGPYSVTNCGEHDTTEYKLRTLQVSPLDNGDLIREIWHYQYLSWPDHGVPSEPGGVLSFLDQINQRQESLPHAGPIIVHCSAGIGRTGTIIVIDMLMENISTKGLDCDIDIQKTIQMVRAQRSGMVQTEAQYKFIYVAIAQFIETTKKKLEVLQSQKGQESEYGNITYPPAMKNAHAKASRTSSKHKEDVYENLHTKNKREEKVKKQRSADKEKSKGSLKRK

These are yes or no findings as the source states them, for the method shown. Binding seen in cells or lysates may run through a third protein. Some results given as binding are weak or reduced against the parent protein; the word gives no strength.

“SH2-containing protein tyrosine phosphatase 1 (SHP1) (from UniProt P29350 1-595) (enzyme)”: the binding entry is listed as “binds”.

B1: guanylate binding protein 2 (GBP2) (protein, UniProt P32456 1-591)
chain: MAPEINLPGPMSLIDNTKGQLVVNPEALKILSAITQPVVVVAIVGLYRTGKSYLMNKLAGKKNGFSLGSTVKSHTKGIWMWCVPHPKKPEHTLVLLDTEGLGDIEKGDNENDSWIFALAILLSSTFVYNSMGTINQQAMDQLHYVTELTDRIKANSSPGNNSVDDSADFVSFFPAFVWTLRDFTLELEVDGEPITADDYLELSLKLRKGTDKKSKSFNDPRLCIRKFFPKRKCFVFDWPAPKKYLAHLEQLKEEELNPDFIEQVAEFCSYILSHSNVKTLSGGIPVNGPRLESLVLTYVNAISSGDLPCMENAVLALAQIENSAAVEKAIAHYEQQMGQKVQLPTETLQELLDLHRDSEREAIEVFMKNSFKDVDQMFQRKLGAQLEARRDDFCKQNSKASSDCCMALLQDIFGPLEEDVKQGTFSKPGGYRLFTQKLQELKNKYYQVPRKGIQAKEVLKKYLESKEDVADALLQTDQSLSEKEKAIEVERIKAESAEAAKKMLEEIQKKNEEMMEQKEKSYQEHVKQLTEKMERDRAQLMAEQEKTLALKLQEQERLLKEGFENESKRLQKDIWDIQMRSKSLEPICNIL
Take B1: the binding result was “binds”.
